Experimental data reported in PMC12003269.

Molecular target: T1, 3×FLAG-RAB11B (UniProt Q15907)
T1 sequence: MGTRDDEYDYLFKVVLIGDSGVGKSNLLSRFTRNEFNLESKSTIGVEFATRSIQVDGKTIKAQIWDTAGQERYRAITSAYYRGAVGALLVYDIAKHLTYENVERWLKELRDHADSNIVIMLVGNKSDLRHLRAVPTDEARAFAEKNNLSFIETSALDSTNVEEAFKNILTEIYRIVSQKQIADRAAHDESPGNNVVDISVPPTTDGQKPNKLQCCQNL
Experiment: affinity purification with mass spectrometry; 3×FLAG-RAB11B transiently transfected into HEK293T; 2 mg lysate immunoprecipitated overnight with anti-FLAG M2 affinity gel beads at 4°C; SDS-PAGE, bands ≥25 kDa analysed by mass spectrometry

B1: RAB11FIP5 (RAB11 family interacting protein 5) (protein, UniProt Q9BXF6 1-653)
chain: MALVRGAEPAAGPSRWLPTHVQVTVLRARGLRGKSSGAGSTSDAYTVIQVGREKYSTSVVEKTHGCPEWREECSFELPPGALDGLLRAQEADAGPAPWAASSAAACELVLTTMHRSLIGVDKFLGQATVALDEVFGAGRAQHTQWYKLHSKPGKKEKERGEIEVTIQFTRNNLSASMFDLSMKDKPRSPFSKIRDKMKGKKKYDLESASAILPSSAIEDPDLGSLGKMGKAKGFFLRNKLRKSSLTQSNTSLGSDSTLSSASGSLAYQGPGAELLTRSPSRSSWLSTEGGRDSAQSPKLFTHKRTYSDEANQMRVAPPRALLDLQGHLDAASRSSLCVNGSHIYNEEPQGPVRHRSSISGSLPSSGSLQAVSSRFSEEGPRSTDDTWPRGSRSNSSSEAVLGQEELSAQAKVLAPGASHPGEEEGARLPEGKPVQVATPIVASSEAVAEKEGARKEERKPRMGLFHHHHQGLSRSELGRRSSLGEKGGPILGASPHHSSSGEEKAKSSWFGLREAKDPTQKPSPHPVKPLSAAPVEGSPDRKQSRSSLSIALSSGLEKLKTVTSGSIQPVTQAPQAGQMVDTKRLKDSAVLDQSAKYYHLTHDELISLLLQRERELSQRDEHVQELESYIDRLLVRIMETSPTLLQIPPGPPK
binding: binds

Results are given in words; binding and its absence hold for the method and conditions named. In cells and extracts the contact can be indirect. These calls come from enrichment with a bait or labelling near it, and not all partners need be listed. Where a sequence is shown, tags or fusion partners need not be part of it.
